According to PMC5347014:
Results are given in words; binding and its absence hold for the method and conditions named. For part of these data: Binding seen in cells or lysates may run through a third protein.

What was measured:
[1] = target: full-length AtClpC1 (Arabidopsis thaliana) (UniProt Q9FI56); assay: co-purification; co-purification of AtClpS1 with the hexameric form of full-length AtClpC1; details in Supplemental data
[2] = target: T1, AtClpC1 NTD (N-terminal domain of Arabidopsis thaliana ClpC1, residues 94-238) (Arabidopsis thaliana) (UniProt Q9FI56); assay: pull-down; pull down assays to obtain a complex of AtClpS1 with AtClpC1 NTD; details in Supplemental data
T1 sequence: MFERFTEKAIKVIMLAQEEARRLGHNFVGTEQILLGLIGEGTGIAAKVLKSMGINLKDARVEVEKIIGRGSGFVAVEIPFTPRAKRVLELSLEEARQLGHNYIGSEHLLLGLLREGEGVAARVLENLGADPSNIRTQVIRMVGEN

[3] = target: full-length AtClpC1 (Arabidopsis thaliana) (UniProt Q9FI56); assay: co-purification; co-purification of AtClpS1 with the monomeric form of full-length AtClpC1; details in Supplemental data

binding [1]: no binding
binding [2]: no binding
binding [3]: no binding
B1: AtClpS1 (protein, UniProt Q9SX29 45-159)
chain: AALGKGGGVLDKPIIEKTTPGRESEFDLRKSKKIAPPYRVILHNDNFNKREYVVQVLMKVIPGMTVDNAVNIMQEAHINGLAVVIVCAQADAEQHCMQLRGNGLLSSVEPDGGGC
